According to patent US11446354B2, “Method of treatment” (Hexima Limited, priority 2014, dated 2022):
Some of these results come from one statement about several compounds together.

System: clinical isolates of Trichophyton rubrum
Assay: Growth inhibition of clinical isolates of T. rubrum
Type: cell-based
Details: growth at 72 hours, FIGS. 2(a)-(d)

Substance | IC50 against four clinical isolates of T. rubrum
NaD1: Solanaceous Class II plant defensin from Nicotiana alata, SEQ ID NO: 18 (RECKTESNTFPGICITKPPCRKACISEKFTDGHCSKILRRCLCTKPC; NaD1 Nicotiana alata) [reference compound] | below 20 μg/mL
HXL008: Class I plant defensin from Picramnia pentandra, SEQ ID NO: 1 (KVCTKPSKFFKGLCGTDGACTTACRKEGLHSGYCQLKGFLNSVCVCRKHC; HXL008 Picramnia pentandra) | below 20 μg/mL
